Laboratory results as given in PubChem BioAssay AID2685 (National Center for Advancing Translational Sciences (NCATS), 2010).
The other results are listed elsewhere or left out. Further columns of the screen follow, without active or inactive calls. The list favours compounds with an active or inconclusive main result. Potencies come from curve fits of mixed quality, noted in brackets.

Test: qHTS Assay for Lipid Storage Modulators in Drosophila S3 Cells;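 on cell number change: cells counted by Cell Tracker Red CMTPX staining in the red channel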
Settings: BODIPY lipid droplet fluorescence, 18-24 h; for cell number change: measured here: cell count max response, cells fed with added oleic acid
In short: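 Drosophila S3 cells got compounds at several concentrations plus oleic acid (400 uM solution). Laser-scanning cytometry with 488 nm excitation read lipid droplets at 500-530 nm and cells at 575-640 nm. Percent activity was relative to 20 uM Triacsin C.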

[1] = measured here: lipid fluorescence (Fed channel) AC50, cells fed with added oleic acid
[2] = measured here: cell number channel AC50, cells fed with added oleic acid

| Compound | cell number change [%] | AC50 [1] | AC50 [2] |
| --- | --- | --- | --- |
| Cc1cc(C)cc(C(=O)NCC(=O)OCC(=O)NCc2ccco2)c1 | -9.09 | 6.51 µM [falling, single point] | – |
| CCN1CCN(C(=O)CN(C)S(=O)(=O)c2ccc(Cl)cc2)CC1 | -38.7 | 3.66 µM [falling, full curve] | 3.66 µM [falling, full curve] |
| CCCC(=O)Nc1c(-c2ccc(OC)cc2)c(=O)c2ccccc2n1C | – | – | 0.00461 µM [rising, full curve, poor fit] |
| CCN(c1ccccc1)S(=O)(=O)c1ccc(OCC(=O)N2CCCC2)cc1 | -43.1 | 1.84 µM [falling, partial curve] | 0.92 µM [falling, partial curve] |
| C#CCOC(=O)C(NC(=O)c1ccccc1)=C1CCCCC1 | 68.7 | 2.31 µM [rising, partial curve, poor fit] | 18.4 µM [rising, partial curve] |
| O=C(N/N=C/c1ccc(O)cc1)c1cccc(C(F)(F)F)c1 | 9.15 | – | – |
| Nc1cc2c(cc1[N+](=O)[O-])OCCOCCOCCO2 | 9.23 | 29.1 µM [rising, single point] | – |
| CCOc1ccccc1NC(=O)COC(=O)c1ccc(S(=O)(=O)N2CCCC2)cc1 | -83.5 | – | 23.1 µM [falling, single point] |
| CCC(C)[C@H](NC(=O)N1CCn2c1nc1ccccc12)C(=O)NCCc1ccc(OC)c(OC)c1 (stereo partly specified) | 13.1 | – | – |
| Cc1ccc(NC(=O)c2cnn(-c3ccccc3)c2C)c(C)c1 | 11.9 | – | – |
| CCCCc1nc(SCC(=O)N2CCOCC2)c2c(=O)n(C)c(=O)n(C)c2n1 | -36.3 | 12.6 µM [falling, single point] | 35.5 µM [falling, single point] |
| COC(=O)c1ccn(C(=O)c2ccc(Cl)cc2)n1 | 0.955 | 0.411 µM [falling, full curve] | – |
| CCNC(=S)N(CCc1c(C)[nH]c2ccccc12)Cc1cccnc1 | 14.9 | 0.00517 µM [rising, full curve, poor fit] | – |
| CCC(=O)N1c2ccc(S(=O)(=O)N3CCN(c4ccc([N+](=O)[O-])cc4)CC3)cc2CC1C (stereo unspecified) | -21.1 | 29.1 µM [falling, single point] | – |
| Fc1cccc(Cc2noc(CN3CCC(c4ccncc4)CC3)n2)c1 | -22.2 | 32.6 µM [falling, single point] | – |
| CCN(CC(=O)Nc1cc(S(=O)(=O)N2CCOCC2)ccc1C)Cc1ccccc1 | -50 | – | 1.3 µM [falling, full curve] |
| CCC(C(=O)Nc1ccc(C(=O)O)cc1NC(=O)C(CC)c1ccccc1)c1ccccc1 (stereo unspecified) | -1.75 | 0.116 µM [rising, full curve, poor fit] | – |
| COc1ccccc1NC(=O)c1cccc(NC(=O)c2ccco2)c1 | -29.7 | – | – |
| CC1(C)CC(=O)C2=C(C1)NC1=C(C(=O)c3ccccc31)C2c1ccccc1 (stereo unspecified) | -1.52 | 10.3 µM [rising, partial curve, poor fit] | – |

Only cell number change [%] and AC50 [1] (2 entries from above):

| Compound | cell number change [%] | AC50 [1] |
| --- | --- | --- |
| CCN(c1ccccc1)S(=O)(=O)c1ccc(OCC(=O)N2CCCC2)cc1 | -43.1 | 1.84 µM [falling, partial curve] |
| C#CCOC(=O)C(NC(=O)c1ccccc1)=C1CCCCC1 | 68.7 | 2.31 µM [rising, partial curve, poor fit] |

Additional records follow.

| Compound | cell number change [%] | AC50 [1] | AC50 [2] |
| --- | --- | --- | --- |
| CN1CCN(C(=O)/C=C/c2c(F)cccc2Cl)CC1 | 1.49 | 29.1 µM [rising, single point] | – |
| CCOc1ccc(CCNC(=O)C2CCN(c3nn4c(=O)cc(C)nc4s3)CC2)cc1OCC | – | 0.13 µM [falling, full curve, poor fit] | – |
| CCN(CC)CCCN1C(=O)C(=O)/C(=C(/O)c2ccc(Cl)cc2)C1c1ccccn1 (stereo unspecified) | -7.71 | 20.6 µM [falling, single point] | – |
| CCO[C@H]1OC(C(=O)O)=C[C@@H](c2ccc(C(F)(F)F)cc2)[C@@H]1CCCO | -0.795 | 0.00461 µM [falling, full curve, poor fit] | – |
| CNC(=O)c1ccc(OCc2ccccc2)c(OC)c1 | 0.674 | 5.8 µM [rising, single point] | – |
| COc1ccc(C(CNC(=O)c2sccc2C)N2CCOCC2)cc1 (stereo unspecified) | 13.8 | 6.51 µM [rising, partial curve, poor fit] | 6.51 µM [rising, single point] |
| CCC1CCCCN1CCCNC(=O)c1nn(C)c2c1CS(=O)(=O)c1ccccc1-2 (stereo unspecified) | – | – | 3.26 µM [rising, partial curve, poor fit] |
| Cc1ccc(Cl)cc1NC(=O)C1CCCN(S(=O)(=O)c2c(C)noc2C)C1 (stereo unspecified) | -6.77 | – | – |
| Cn1nc(C(F)(F)F)c2cc(C(=O)Nc3ccc(F)c(Cl)c3)sc21 | 27.3 | 0.58 µM [rising, single point] | – |
| CC1(C)Cc2c(cnn2-c2ccccc2)C(=O)/C1=N\NC(=O)c1ccccc1O | 23.5 | 16.4 µM [rising, partial curve] | – |
| CCNc1nc(NCC)nc(SCCOc2ccc(C)cc2)n1 | 16.7 | 2.59 µM [rising, full curve] | – |
| COc1cc(C(c2c(C)[nH][nH]c2=O)c2c(C)[nH][nH]c2=O)ccc1OS(=O)(=O)c1ccc(C)cc1 | 0.724 | 4.11 µM [falling, single point] | 0.411 µM [falling, full curve] |
| CCc1ccccc1NC(=O)c1ccc(NS(C)(=O)=O)cc1 | – | 29.1 µM [falling, single point] | – |
| COC(=O)C1(C)CC1(c1ccccc1)c1ccccc1 (stereo unspecified) | -40.2 | 16.4 µM [falling, partial curve, poor fit] | 16.4 µM [falling, partial curve, poor fit] |
| CS(=O)(=O)NN1C(=O)c2ccccc2NC12CCCC2 | – | 6.51 µM [rising, partial curve, poor fit] | – |
| COc1ccc(C(C(=O)NCC2CCCO2)N(C(=O)Cn2nnc3ccccc32)c2ccc(NC(C)=O)cc2)c(OC)c1 (stereo unspecified) | -24.4 | – | – |
| Cc1occc1C(=O)Nc1cc(C(C)(C)C)on1 | 181 | 29.1 µM [rising, single point] | 20.6 µM [rising, partial curve] |
| NC(=O)C1CCN(C2CC(=O)N(Cc3cccs3)C2=O)CC1 (stereo unspecified) | -10.5 | 0.116 µM [falling, full curve] | – |
